Here are results for four substances from paper doi:10.1101/2020.12.23.424112.

Amino acid sequences for entries named in this document (tags omitted).
UniProt P08518: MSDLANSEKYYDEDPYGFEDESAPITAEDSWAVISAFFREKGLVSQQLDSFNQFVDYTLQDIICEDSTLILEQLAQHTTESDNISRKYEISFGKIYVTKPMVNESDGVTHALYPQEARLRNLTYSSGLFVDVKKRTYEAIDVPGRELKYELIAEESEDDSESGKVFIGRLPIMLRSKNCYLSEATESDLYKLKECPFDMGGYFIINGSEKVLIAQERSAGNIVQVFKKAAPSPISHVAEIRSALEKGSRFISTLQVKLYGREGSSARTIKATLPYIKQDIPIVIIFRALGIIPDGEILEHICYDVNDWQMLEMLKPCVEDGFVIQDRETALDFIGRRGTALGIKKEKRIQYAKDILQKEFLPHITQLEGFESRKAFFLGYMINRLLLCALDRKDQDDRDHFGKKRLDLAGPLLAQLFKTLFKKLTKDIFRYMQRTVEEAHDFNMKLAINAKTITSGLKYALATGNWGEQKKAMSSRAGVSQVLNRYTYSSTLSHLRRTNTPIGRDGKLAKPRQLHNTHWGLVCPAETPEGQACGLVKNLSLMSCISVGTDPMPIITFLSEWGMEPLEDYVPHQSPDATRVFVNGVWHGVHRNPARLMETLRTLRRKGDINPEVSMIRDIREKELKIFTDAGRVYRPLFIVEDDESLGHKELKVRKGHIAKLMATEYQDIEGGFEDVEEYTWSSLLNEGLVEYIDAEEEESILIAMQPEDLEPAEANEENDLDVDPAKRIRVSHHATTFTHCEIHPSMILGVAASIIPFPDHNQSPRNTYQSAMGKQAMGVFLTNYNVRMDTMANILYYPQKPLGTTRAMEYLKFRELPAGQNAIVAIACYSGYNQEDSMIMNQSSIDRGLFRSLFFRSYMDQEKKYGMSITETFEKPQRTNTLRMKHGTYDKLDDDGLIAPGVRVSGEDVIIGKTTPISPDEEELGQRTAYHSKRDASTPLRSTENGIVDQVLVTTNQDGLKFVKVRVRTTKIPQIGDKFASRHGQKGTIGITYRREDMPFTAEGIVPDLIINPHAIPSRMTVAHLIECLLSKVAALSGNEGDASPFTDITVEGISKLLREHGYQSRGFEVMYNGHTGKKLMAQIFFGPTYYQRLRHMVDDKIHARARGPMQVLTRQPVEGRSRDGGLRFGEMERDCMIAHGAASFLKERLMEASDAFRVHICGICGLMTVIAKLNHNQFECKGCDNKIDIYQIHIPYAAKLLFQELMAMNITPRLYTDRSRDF
UniProt P16370: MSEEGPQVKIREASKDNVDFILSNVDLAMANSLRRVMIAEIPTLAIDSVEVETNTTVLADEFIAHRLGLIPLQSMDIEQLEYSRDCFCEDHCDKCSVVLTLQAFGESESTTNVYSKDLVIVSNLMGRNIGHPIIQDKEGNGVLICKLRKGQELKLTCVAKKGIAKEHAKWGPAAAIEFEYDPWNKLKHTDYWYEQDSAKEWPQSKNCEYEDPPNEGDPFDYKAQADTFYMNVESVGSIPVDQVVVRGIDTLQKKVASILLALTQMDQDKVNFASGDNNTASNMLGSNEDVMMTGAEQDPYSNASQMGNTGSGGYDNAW
UniProt P20434: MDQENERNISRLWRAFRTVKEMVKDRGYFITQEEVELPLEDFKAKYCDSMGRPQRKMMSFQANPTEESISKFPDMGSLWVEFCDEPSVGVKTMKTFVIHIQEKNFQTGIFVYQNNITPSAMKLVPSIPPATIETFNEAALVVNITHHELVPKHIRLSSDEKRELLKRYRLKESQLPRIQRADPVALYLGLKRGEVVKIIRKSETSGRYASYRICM
UniProt P20435: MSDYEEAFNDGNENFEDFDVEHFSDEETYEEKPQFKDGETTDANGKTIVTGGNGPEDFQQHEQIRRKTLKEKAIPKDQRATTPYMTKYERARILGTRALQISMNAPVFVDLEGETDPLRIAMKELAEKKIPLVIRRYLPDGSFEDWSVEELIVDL
UniProt P20436: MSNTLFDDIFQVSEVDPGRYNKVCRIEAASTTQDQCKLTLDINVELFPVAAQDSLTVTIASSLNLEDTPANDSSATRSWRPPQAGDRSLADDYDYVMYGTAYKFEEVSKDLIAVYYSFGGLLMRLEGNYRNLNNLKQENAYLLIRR

Results are given in words; binding and its absence hold for the method and conditions named. In cells and extracts the contact can be indirect. Some binding calls cover weakened binding; strength is not graded here. For some assays here: Tags and fused reporters may be left off the sequences shown.

Test [1] addresses TAP-tagged version of Rpb2 (S. cerevisiae) (UniProt P08518). The test can be described thus: pull-down.
Test [2] deals with Rpb3 subunit of RNA pol II (S. cerevisiae) (UniProt P16370). The test can be described thus: co-IP.
Test [3] concerns the target T1, Rpc160::Myc, tagged form of the largest subunit of RNA pol III (S. cerevisiae) (UniProt P04051).
T1 sequence: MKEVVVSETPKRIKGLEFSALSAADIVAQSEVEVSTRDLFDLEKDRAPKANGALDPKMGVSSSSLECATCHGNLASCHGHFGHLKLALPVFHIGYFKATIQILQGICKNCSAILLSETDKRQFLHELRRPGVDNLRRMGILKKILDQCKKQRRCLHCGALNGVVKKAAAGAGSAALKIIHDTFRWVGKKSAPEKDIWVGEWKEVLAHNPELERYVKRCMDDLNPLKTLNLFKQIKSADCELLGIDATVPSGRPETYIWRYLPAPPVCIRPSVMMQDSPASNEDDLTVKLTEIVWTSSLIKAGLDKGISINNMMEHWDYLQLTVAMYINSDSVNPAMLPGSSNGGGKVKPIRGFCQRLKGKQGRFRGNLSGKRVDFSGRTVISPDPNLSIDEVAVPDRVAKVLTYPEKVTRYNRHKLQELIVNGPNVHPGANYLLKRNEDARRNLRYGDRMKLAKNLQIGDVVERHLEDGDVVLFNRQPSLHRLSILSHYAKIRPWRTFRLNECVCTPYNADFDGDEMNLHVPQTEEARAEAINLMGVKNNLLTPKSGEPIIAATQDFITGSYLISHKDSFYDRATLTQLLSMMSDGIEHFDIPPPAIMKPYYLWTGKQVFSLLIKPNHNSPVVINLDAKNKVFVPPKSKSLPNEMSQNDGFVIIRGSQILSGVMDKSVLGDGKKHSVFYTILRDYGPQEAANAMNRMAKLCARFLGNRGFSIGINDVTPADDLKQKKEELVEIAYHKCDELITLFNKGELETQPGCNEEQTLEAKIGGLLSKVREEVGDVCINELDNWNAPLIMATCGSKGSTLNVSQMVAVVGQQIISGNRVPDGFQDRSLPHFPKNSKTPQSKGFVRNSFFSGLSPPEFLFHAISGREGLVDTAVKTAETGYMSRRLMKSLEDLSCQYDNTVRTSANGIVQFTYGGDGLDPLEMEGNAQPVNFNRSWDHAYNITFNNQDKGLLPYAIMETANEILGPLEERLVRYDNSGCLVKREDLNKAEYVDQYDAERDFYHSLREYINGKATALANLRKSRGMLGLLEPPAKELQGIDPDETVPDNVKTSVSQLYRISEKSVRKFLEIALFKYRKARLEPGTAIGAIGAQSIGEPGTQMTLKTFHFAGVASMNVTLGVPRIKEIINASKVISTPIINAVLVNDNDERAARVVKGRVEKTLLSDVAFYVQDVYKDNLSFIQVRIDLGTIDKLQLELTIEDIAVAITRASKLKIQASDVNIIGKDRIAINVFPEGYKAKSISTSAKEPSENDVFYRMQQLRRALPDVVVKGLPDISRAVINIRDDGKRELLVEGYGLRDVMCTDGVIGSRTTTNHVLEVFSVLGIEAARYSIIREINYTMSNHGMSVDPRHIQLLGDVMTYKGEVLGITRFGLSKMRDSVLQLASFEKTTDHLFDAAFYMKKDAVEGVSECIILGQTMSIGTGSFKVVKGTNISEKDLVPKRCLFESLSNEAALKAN
The test can be described thus: co-IP.

“Rpb3 subunit of RNA pol II (from UniProt P16370 1-318)”: the binding entry in test [1] is reported as “binds”. Take “Rpb5, common subunit of the three RNA polymerases (from UniProt P20434 1-215)”: the binding result in test [2] and in test [3] was “binds” in each case. In the case of “Rpb6 subunit of RNA pol II (from UniProt P20435 1-155)”, the binding entry in test [2] is “binds”.

“Rpb8-TAP tagged protein (from UniProt P20436 1-146)”: in test [2], the binding result is listed as “binds”.
